Laboratory results from patent publication US11241424B2, “Pharmaceutical formulations for sustained release of sebacoyl dinalbuphine ester” (LUMOSA THERAPEUTICS CO., LTD., priority 2015, dated 2022).
At least one compound was matched to its structure with a doubt left.

Key:
[1] = tested on: postoperative pain following hemorrhoidectomy; assay: Phase 2/3 clinical study of F8 formulation; type: in vivo, human; settings: mITT, SDE 150 mg IM (F8)
Method: The subjects were divided into two groups, of which Group 1 (n=103) was treated with a single dose of intramuscular SDE 150 mg (2 mL), and Group 2 (n=106) was treated with a single dose of intramuscular placebo (2 mL). All subjects were given a single dose of SDE or placebo via intramuscular injection 24±12 hours before hemorrhoid surgery. The subjects were allowed to take rescue medication and monitored for 7 days after dosing. Statistical analyses were performed on the data to compare the two groups.
The primary efficacy endpoint was pain assessment calculated as the area under the curve of VAS pain intensity scores through 48 hours after surgery. The secondary efficacy endpoints included pain assessment measured with VAS; time from the end of operation to the first rescue medication dosing; the consumption of oral ketorolac. Pain intensity was assessed right before the first use of PCA ketorolac, and at 1±0.1, 2±0.1, 3±0.1, 4±0.25, 8±0.5, 12±0.5, 16±0.5, 20±0.5, 24±1, 28±1, 32±2, 36±2, 40±2, 44±2, 48±2 hours after the surgery, and was assessed during Days 3-7 in the morning and evening, as well as during special events such as bowel movements.
For the calculation of AUC, data were imputed with the use of the windowed worst observation carried forward plus last observation carried forward method. For subjects who used rescue medication for pain relief, their VAS scores recorded within the window of ketorolac medication (6 hours, which is one half-life of ketorolac) were replaced by the “worst” observation (i.e., the highest score before taking ketorolac), hereafter called “adjusted VAS scores.”
The AUC0-24 and AUC0-48 of the mean adjusted VAS scores of SDE and placebo groups were calculated by using the trapezoidal method and summarized in Table 10.

[2] = Solubility test of SDE in solvents and solvent systems (UPLC); type: physicochemical; settings: weight ratio of benzyl benzoate to sesame oil about 1
Method: As used herein, the term “solubility” means the maximum amount of a solute (e.g., an active ingredient or a prodrug thereof) that can be dissolved in a given amount of a solvent at a particular temperature. Unless otherwise specified, the solubilities presented herein are at room temperature (e.g., 25-28° C.). The term “saturated concentration” refers to the concentration at which no more of a solute will dissolve in a solvent and additional amounts of solute will appear as a separate phase (e.g., as a precipitate).
Each of the solvent systems was prepared by mixing each component with the exact volume (pi) corresponding to the w/w % listed in Table 15. About 500 μl of each of the solvent systems was prepared and was vortexed for 3 minutes or more to fully mix each component. […]
Five groups of solvent systems containing 40% by weight of sesame oil were respectively prepared according to the method of Example 6 by using the compositions as listed in Table 17; and among them, five different alcohols (i.e., ethanol, 1-propanol, 2-propanol, 1-butanol, and tert-butanol) were used in the five groups. […] The SDE concentrations in the supernatants collected from each of the samples (i.e. the saturated SDE concentration, or SDE solubility) were respectively determined by UPLC using the method of Example 6.

O=C(CCCCCCCCC(=O)Oc1ccc2c3c1O[C@H]1[C@@H](O)CC[C@@]4(O)[C@@H](C2)N(CC2CCC2)CC[C@]314)Oc1ccc2c3c1O[C@H]1[C@@H](O)CC[C@@]4(O)[C@@H](C2)N(CC2CCC2)CC[C@]314 [SDE, sebacoyl dinalbuphine ester]
AUC0-final of adjusted VAS scores, SDE - Placebo, LS-mean [95% CI] ([1]; 0 hr to 7 days): −115.20 [−209.153; −21.26] | AUC0-24 of adjusted VAS scores, SDE - Placebo, LS-mean [95% CI] [1]: −16.86 [−31.05; −2.67] | AUC0-48 of adjusted VAS scores, SDE - Placebo, LS-mean [95% CI] [1]: −42.20 [−71,68; −12.71] | time for the first use of post-operational analgesic, Median [95% CI] [1]: 4.42 [3.47; 5.80] hour | time for the first use of post-operational analgesic, Q1 [95% CI] [1]: 2.27 [1.32; 2.78] hour | time for the first use of post-operational analgesic, Q3 [95% CI] [1]: 11.25 [8.33; 45.65] hour | solubility (saturated concentration) of SDE when added to the mixture of benzyl benzoate and sesame oil [2]: about 60 mg/mL
